In publication doi:10.1101/2022.04.15.488344 (bioRxiv, 2022) one finds binding data, which are given here for one substance.

The chains behind the UniProt entries cited, without tags or fusion partners.
UniProt P03372, whole entry: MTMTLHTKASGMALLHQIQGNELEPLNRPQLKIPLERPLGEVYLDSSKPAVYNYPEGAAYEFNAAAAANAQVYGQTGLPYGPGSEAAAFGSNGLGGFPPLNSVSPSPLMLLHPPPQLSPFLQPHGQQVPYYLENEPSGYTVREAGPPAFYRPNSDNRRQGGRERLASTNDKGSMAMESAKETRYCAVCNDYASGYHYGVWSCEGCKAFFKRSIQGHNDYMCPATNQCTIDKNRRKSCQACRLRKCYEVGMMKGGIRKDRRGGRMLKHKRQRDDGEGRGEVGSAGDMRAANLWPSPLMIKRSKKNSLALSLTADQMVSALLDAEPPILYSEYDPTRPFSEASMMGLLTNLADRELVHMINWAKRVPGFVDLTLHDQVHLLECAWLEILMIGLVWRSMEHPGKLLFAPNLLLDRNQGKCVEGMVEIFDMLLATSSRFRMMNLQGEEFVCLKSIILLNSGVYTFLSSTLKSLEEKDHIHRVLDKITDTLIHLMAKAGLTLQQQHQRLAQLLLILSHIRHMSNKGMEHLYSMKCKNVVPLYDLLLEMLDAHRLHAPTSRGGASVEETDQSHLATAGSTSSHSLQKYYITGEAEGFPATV

In the experiment the target is T1, αII-Gal4 fusion (peptide αII).
T1 sequence (peptide): SSLTSRDFGSWYASR
Nature of the experiment: two-hybrid.

Results are given in words; binding and its absence hold for the method and conditions named. Some entries that bind do so weakly or less than the wild type. Where a sequence is shown, tags or fusion partners need not be part of it.

Regarding “ERα-VP16 fusion (from UniProt P03372 1-595) (receptor)”, the binding result was “binds”.
